PubChem BioAssay AID1259405 – NCATS | 2018

Screen: 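Silenced genes that increase secreted GFP made by CHO cells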 (primary screen)
Cell system: Chinese hamster CHO-K1 ovary cells with stable secreted eGFP expression
Reagent: single siRNA against mouse genes, 0.8 pmol siRNA per well (2 µl of 400 nM stock)
Duration: 3 days
Measurement: 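Per-well intracellular GFP measured by laser scanning cytometry, plus viability from ATP luminescence, each relative to plate median of non-targeting control wells, in %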
Direction: GFP, % of control: higher = more GFP per well, higher productivity; viability (ATP), % of control: higher = more viable cells (more ATP)
Rule for the call: 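Called active when intracellular GFP, relative to negative control, is at or above 120%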
The deposit covers about 50,000 reagents; shown is a part drawn at random. Of all reagents, about 4,000 (8%) are marked active. 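Mouse siRNA library applied to hamster cells; one well for each siRNA.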 The numbers tell different reagents against one gene apart.

H1f10 #1 — GFP, % of control = 95.7; viability (ATP), % of control = 97; Call = inactive
H1f10 #2 — GFP, % of control = 99; viability (ATP), % of control = 105; Call = inactive
H1f10 #3 — GFP, % of control = 104; viability (ATP), % of control = 76.4; Call = inactive
Kyat1 #1 — GFP, % of control = 89.8; viability (ATP), % of control = 83.6; Call = inactive
Kyat1 #2 — GFP, % of control = 105; viability (ATP), % of control = 124; Call = inactive
Kyat1 #3 — GFP, % of control = 87.6; viability (ATP), % of control = 93.3; Call = inactive
Prtg #1 — GFP, % of control = 64.8; viability (ATP), % of control = 49.1; Call = inactive
Prtg #2 — GFP, % of control = 75; viability (ATP), % of control = 67.4; Call = inactive
Prtg #3 — GFP, % of control = 121; viability (ATP), % of control = 113; Call = active
Pcsk9 #1 — GFP, % of control = 129; viability (ATP), % of control = 82.4; Call = active
Pcsk9 #2 — GFP, % of control = 97.2; viability (ATP), % of control = 55.9; Call = inactive
Pcsk9 #3 — GFP, % of control = 56.8; viability (ATP), % of control = 55.3; Call = inactive
H2-DMb1 #1 — GFP, % of control = 79.8; viability (ATP), % of control = 69.7; Call = inactive
H2-DMb1 #2 — GFP, % of control = 88.3; viability (ATP), % of control = 74.5; Call = inactive
H2-DMb1 #3 — GFP, % of control = 68.1; viability (ATP), % of control = 63.5; Call = inactive
Zfp598 #1 — GFP, % of control = 45.4; viability (ATP), % of control = 27.6; Call = inactive
Zfp598 #2 — GFP, % of control = 53.2; viability (ATP), % of control = 65; Call = inactive
Zfp598 #3 — GFP, % of control = 65; viability (ATP), % of control = 92; Call = inactive
Cenpk #1 — GFP, % of control = 79.5; viability (ATP), % of control = 88; Call = inactive
Cenpk #2 — GFP, % of control = 62; viability (ATP), % of control = 93.9; Call = inactive
Cenpk #3 — GFP, % of control = 61.2; viability (ATP), % of control = 66.7; Call = inactive
Zfp128 #1 — GFP, % of control = 92.9; viability (ATP), % of control = 114; Call = inactive
Zfp128 #2 — GFP, % of control = 76.9; viability (ATP), % of control = 83.7; Call = inactive
Zfp128 #3 — GFP, % of control = 125; viability (ATP), % of control = 106; Call = active
Rp2 #1 — GFP, % of control = 70; viability (ATP), % of control = 88.7; Call = inactive
Rp2 #2 — GFP, % of control = 52.2; viability (ATP), % of control = 51.9; Call = inactive
Rp2 #3 — GFP, % of control = 75.3; viability (ATP), % of control = 67.3; Call = inactive
Capn11 #1 — GFP, % of control = 126; viability (ATP), % of control = 51.5; Call = active
Capn11 #2 — GFP, % of control = 30.3; viability (ATP), % of control = 34.4; Call = inactive
Capn11 #3 — GFP, % of control = 70.7; viability (ATP), % of control = 55.2; Call = inactive
Cnn2 #1 — GFP, % of control = 61.1; viability (ATP), % of control = 51.4; Call = inactive
Cnn2 #2 — GFP, % of control = 95.1; viability (ATP), % of control = 86; Call = inactive
Cnn2 #3 — GFP, % of control = 127; viability (ATP), % of control = 79.2; Call = active
Zfp69 #1 — GFP, % of control = 63.9; viability (ATP), % of control = 73.6; Call = inactive
Zfp69 #2 — GFP, % of control = 67.7; viability (ATP), % of control = 85.8; Call = inactive
Zfp69 #3 — GFP, % of control = 101; viability (ATP), % of control = 84.4; Call = inactive
Chst9 #1 — GFP, % of control = 90.8; viability (ATP), % of control = 94.5; Call = inactive
Chst9 #2 — GFP, % of control = 117; viability (ATP), % of control = 131; Call = inactive
Chst9 #3 — GFP, % of control = 110; viability (ATP), % of control = 125; Call = inactive
Mtrex #1 — GFP, % of control = 90.1; viability (ATP), % of control = 66.3; Call = inactive
Mtrex #2 — GFP, % of control = 72.7; viability (ATP), % of control = 70.8; Call = inactive
Mtrex #3 — GFP, % of control = 108; viability (ATP), % of control = 124; Call = inactive

Records above whose target name begins with M or m (3):
Mtrex #1 — GFP, % of control = 90.1; viability (ATP), % of control = 66.3; Call = inactive
Mtrex #2 — GFP, % of control = 72.7; viability (ATP), % of control = 70.8; Call = inactive
Mtrex #3 — GFP, % of control = 108; viability (ATP), % of control = 124; Call = inactive
